Results deposited as PubChem BioAssay AID1224828 (NIAID, 2016)
The deposit covers about 17,000 reagents; below is a random part of them. Of all reagents, 762 (4.5%) got an active call. 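Active calls include both raised and lowered p65 entry, mostly lowered; wells with fewer than 50 cells lack a z-score.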 The raw values are shown without normalisation.

Test: 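Regulators linking TLR4 signalling to p65 nuclear translocation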 (primary screen)
Cell system: mouse RAW264.7 G9 macrophage reporter cells (GFP-p65, Tnf promoter-mCherry)
Knock-down reagent: siRNA pool against mouse genes, 100 nM
Duration: 2 days siRNA transfection, then 40 min LPS before fixation
Treatment: LPS (Salmonella minnesota R595) at 10 ng/ml
Measured: 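Imaged p65 nuclear translocation ratio, normalised to the plate median, converted to robust z-scores and averaged across two replicates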
Scale: p65 translocation robust z-score: higher = more nuclear NF-kappaB p65 after LPS than the plate median; nuclear/cytoplasmic p65 ratio: higher = more nuclear NF-kappaB p65
Rule for the call: 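Called active when z exceeds 3.3 or falls under -1.56 (median of Tlr4 controls), giving activity score of at least 50; no calls for control wells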
Meaning of the calls: active = hit (p65 shift raised or lowered); inactive = no clear change

target,PubChem SID,p65 translocation robust z-score,"nuclear/cytoplasmic p65 ratio, rep 1","nuclear/cytoplasmic p65 ratio, rep 2",low cell count flag,Outcome
Irf3 (interferon regulatory factor 3),SID315471154,-1.1,1.34,1.23,enough cells to score,inactive
Shank3 (SH3 and multiple ankyrin repeat domains 3),SID315471889,-0.09,1.54,1.54,enough cells to score,inactive
"Ssr4 (signal sequence receptor, delta)",SID315469474,2.12,1.77,1.95,enough cells to score,inactive
Bzw1 (basic leucine zipper and W2 domains 1),SID315472694,0.21,1.46,1.38,enough cells to score,inactive
Brd8dc (BRD8 domain containing),SID315480949,0.07,1.31,1.28,enough cells to score,inactive
Ptprn2 (protein tyrosine phosphatase receptor type N polypeptide 2),SID315468819,0.61,1.57,1.63,enough cells to score,inactive
Creld1 (cysteine-rich with EGF-like domains 1),SID315477368,0.05,1.58,1.8,enough cells to score,inactive
"Igsf9 (immunoglobulin superfamily, member 9)",SID315475981,,1.52,1.37,fewer than 50 cells per well; well left out of scoring,inactive
Zfp738 (zinc finger protein 738),SID315481056,,1.23,2.09,fewer than 50 cells per well; well left out of scoring,inactive
Rxfp3 (relaxin family peptide receptor 3),SID315479433,-0.71,1.46,1.42,enough cells to score,inactive
Adck5 (aarF domain containing kinase 5),SID315480801,-1.53,1.37,1.25,enough cells to score,inactive
Fau (FAU ubiquitin like and ribosomal protein S30 fusion),SID315466630,0.26,1.55,1.35,enough cells to score,inactive
Slc14a2,SID315470619,0.01,1.43,1.61,enough cells to score,inactive
Slc27a5,SID315470428,-0.57,1.33,1.2,enough cells to score,inactive
Osbpl9 (oxysterol binding protein-like 9),SID315476218,-0.51,1.34,1.21,enough cells to score,inactive
Gm4814 (predicted gene 4814),SID315478194,,1.46,1.41,fewer than 50 cells per well; well left out of scoring,inactive
Plaat5 (phospholipase A and acyltransferase 5),SID315472610,3.16,1.66,1.66,enough cells to score,inactive
Tmed1 (transmembrane p24 trafficking protein 1),SID315467787,-1.36,1.29,1.21,enough cells to score,inactive
Cdc25b (cell division cycle 25B),SID315465885,-0.11,1.38,1.42,enough cells to score,inactive
Cndp2 (CNDP dipeptidase 2),SID315472183,-0.32,1.57,1.71,enough cells to score,inactive
"Pcyt1a (phosphate cytidylyltransferase 1, choline, alpha isoform)",SID315466190,-0.45,1.23,1.19,enough cells to score,inactive
Fyco1 (FYVE and coiled-coil domain containing 1),SID315467899,-0.03,1.58,1.47,enough cells to score,inactive
Gtf2ird1 (general transcription factor II I repeat domain-containing 1),SID315471717,-0.99,1.21,1.34,enough cells to score,inactive
Phox2b (paired-like homeobox 2b),SID315468607,0.36,1.59,1.41,enough cells to score,inactive
Gm10283 (predicted gene 10283),SID315481613,-2.21,1.43,1.17,enough cells to score,active
Defb14 (defensin beta 14),SID315479755,-0.19,1.54,1.53,enough cells to score,inactive
Ung (uracil DNA glycosylase),SID315469940,0.59,1.58,1.6,enough cells to score,inactive
Mast3 (microtubule associated serine/threonine kinase 3),SID315481981,,1.39,1.56,fewer than 50 cells per well; well left out of scoring,inactive
Nf1 (neurofibromin 1),SID315468139,-1.27,1.21,1.19,enough cells to score,inactive
Pcdhb14 (protocadherin beta 14),SID315475997,0.67,1.54,1.32,enough cells to score,inactive
Ndrg3 (N-myc downstream regulated gene 3),SID315470702,-0.48,1.76,1.47,enough cells to score,inactive
Kifc3 (kinesin family member C3),SID315467633,1.29,1.62,1.57,enough cells to score,inactive
Ces3b (carboxylesterase 3B),SID315466560,-0.99,1.63,1.35,enough cells to score,inactive
Il17a (interleukin 17A),SID315467438,-1.34,1.22,1.23,enough cells to score,inactive
Or10al6 (olfactory receptor family 10 subfamily AL member 6),SID315479979,-1.45,1.49,1.41,enough cells to score,inactive
Uchl5 (ubiquitin carboxyl-terminal esterase L5),SID315471398,-0.37,1.49,1.42,enough cells to score,inactive
Cops8 (COP9 signalosome subunit 8),SID315476724,1.1,1.7,2,enough cells to score,inactive
Plp2 (proteolipid protein 2),SID315468594,-1.11,1.27,1.06,enough cells to score,inactive
Bmp3 (bone morphogenetic protein 3),SID315476868,-1.12,1.45,1.44,enough cells to score,inactive
"Kcng4 (potassium voltage-gated channel, subfamily G, member 4)",SID315472613,-0.67,1.49,1.31,enough cells to score,inactive

5 entries from above in another layout.
{"target":"Slc14a2","PubChem SID":"SID315470619","p65 translocation robust z-score":0.01,"nuclear/cytoplasmic p65 ratio, rep 1":1.43,"nuclear/cytoplasmic p65 ratio, rep 2":1.61,"low cell count flag":"enough cells to score","Outcome":"inactive"}
{"target":"Slc27a5","PubChem SID":"SID315470428","p65 translocation robust z-score":-0.57,"nuclear/cytoplasmic p65 ratio, rep 1":1.33,"nuclear/cytoplasmic p65 ratio, rep 2":1.2,"low cell count flag":"enough cells to score","Outcome":"inactive"}
{"target":"Osbpl9 (oxysterol binding protein-like 9)","PubChem SID":"SID315476218","p65 translocation robust z-score":-0.51,"nuclear/cytoplasmic p65 ratio, rep 1":1.34,"nuclear/cytoplasmic p65 ratio, rep 2":1.21,"low cell count flag":"enough cells to score","Outcome":"inactive"}
{"target":"Gm4814 (predicted gene 4814)","PubChem SID":"SID315478194","nuclear/cytoplasmic p65 ratio, rep 1":1.46,"nuclear/cytoplasmic p65 ratio, rep 2":1.41,"low cell count flag":"fewer than 50 cells per well; well left out of scoring","Outcome":"inactive"}
{"target":"Plaat5 (phospholipase A and acyltransferase 5)","PubChem SID":"SID315472610","p65 translocation robust z-score":3.16,"nuclear/cytoplasmic p65 ratio, rep 1":1.66,"nuclear/cytoplasmic p65 ratio, rep 2":1.66,"low cell count flag":"enough cells to score","Outcome":"inactive"}
